In patent US20240130994A1, “IONIC LIQUID FORMULATIONS FOR TREATING DIABETES” (i2O Therapeutics, Inc., priority 2020, published 2024):

Assay: Physical form of choline-based ionic liquids at room temperature
Type: physicochemical
Conditions: cation:anion 1:2, room temperature
Procedure: Several ionic liquids comprising choline as a cation and various anions were synthesized. […] For anions not miscible with the aqueous choline bicarbonate solution, a co-solvent, such as ethanol, was added until a homogenous mixture formed. The mixture was stirred at room temperature until CO2 evolution ceased. Solvent was removed by rotary evaporation at 60° C. for 20 minutes, and each product was dried in a vacuum oven for 48 hours at 60° C.

Physical Form (Ratios Listed as Cation:Anion): Liquid at 1:2
SMILES: CC(C)CC(=O)O [Isovaleric Acid]
